Reference: US5015631A, “Repairing agent for cells and tissues” (MECT Corporation, priority 1987, dated 1991)
The source gives many values for each of these; only a part stands here.

System: mice
Assay: Simple acute toxicity test by intravenous injection in mice
Type: in vivo, Male ddy mice
Details: 3 mice
Description: Simple acute toxicity test:
Simple acute toxicity tests of the materials were conducted by intraveous injections for the mice as follows:
Lithium, potassium, barium and magnesium N-acetylneuraminates (products of MECT Corporation) were used.
Weight of the animal in the initial stage of the test: 17.7 to 21.1 g
Number of mice for each level: 3
(3) Room temperature: 23±1° C., humidity: 55±7%
(4) Route of administration: intravenous injection
The material was dissolved in the physiological saline. The concentration of the dose solution was adjusted so that 0.2 ml of the dose solution was administered per 20 g of the body weight of the mice. The solution was given to a tail of each mouse by the intravenous injection. The dose was 500, 1000 or 2000 mg/kg.
The general symptoms and death were observed from immediately after the administration to seven days after the administration.

Q: Which “Number of death with the elapse of time” value (1000 mg/kg i.v., 1 hr) does the source give for `CC(=O)N[C@H]1[C@H]([C@H](O)[C@H](O)CO)OC(O)(C(=O)O)C[C@@H]1O` (some centres unmarked) [Magnesium N-acetylneuraminate] here?
A: The value was 3.

Q: What about the “Number of death with the elapse of time” value (1000 mg/kg i.v., 3 hrs) of the same compound?
A: The value was 0.

Q: And the “Number of death with the elapse of time” value (1000 mg/kg i.v., 6 hrs)?
A: Its value is 0.

Q: What about the “Number of death with the elapse of time” value (1000 mg/kg i.v., 24 hrs) of the same compound?
A: The value was 0.

Q: And the “Number of death with the elapse of time” value (1000 mg/kg i.v., 2 days)?
A: The value was 0.

Q: What about the “Number of death with the elapse of time” value (1000 mg/kg i.v., 3 days) of the same compound?
A: The value was 0.

Q: And the “Number of death with the elapse of time” value (1000 mg/kg i.v., 4 days)?
A: Its value is 0.

Q: And the “Number of death with the elapse of time” value (1000 mg/kg i.v., 5 days)?
A: The value was 0.

Q: What about the “Number of death with the elapse of time” value (1000 mg/kg i.v., 6 days) of the same compound?
A: Its value is 0.

Q: What about the “Number of death with the elapse of time” value (1000 mg/kg i.v., 7 days) of the same compound?
A: The value was 0.

Q: What about the “Number of death with the elapse of time” value (2000 mg/kg i.v., 1 hr) of the same compound?
A: Its value is 3.

Q: And the “Number of death with the elapse of time” value (2000 mg/kg i.v., 3 hrs)?
A: The value was 0.

Q: And the “Number of death with the elapse of time” value (2000 mg/kg i.v., 6 hrs)?
A: Its value is 0.

Q: And the “Number of death with the elapse of time” value (2000 mg/kg i.v., 24 hrs)?
A: The value was 0.

Q: What about the “Number of death with the elapse of time” value (2000 mg/kg i.v., 2 days) of the same compound?
A: The value was 0.

Q: What about the “Number of death with the elapse of time” value (2000 mg/kg i.v., 3 days) of the same compound?
A: Its value is 0.

Q: What about the “Number of death with the elapse of time” value (2000 mg/kg i.v., 4 days) of the same compound?
A: The value was 0.

Q: What about the “Number of death with the elapse of time” value (2000 mg/kg i.v., 5 days) of the same compound?
A: The value was 0.

Q: What about the “Number of death with the elapse of time” value (2000 mg/kg i.v., 6 days) of the same compound?
A: The value was 0.

Q: And the “Number of death with the elapse of time” value (2000 mg/kg i.v., 7 days)?
A: Its value is 0.
